Data as given in publication doi:10.1101/2021.07.18.452865.
Where a chain is given by its changes, count along the chain named. Results are given in words; binding and its absence hold for the method and conditions named. In cells and extracts the contact can be indirect. Some results given as binding are weak or reduced against the parent protein; the word gives no strength. Tags and fused reporters may be left off the sequences shown.

Sequences of proteins named here, by UniProt entry; tags and fusion partners are left off. A change or cut given only in a name is not applied to a line headed by its entry. Residues count along the entry.
UniProt Q13705, 19-512: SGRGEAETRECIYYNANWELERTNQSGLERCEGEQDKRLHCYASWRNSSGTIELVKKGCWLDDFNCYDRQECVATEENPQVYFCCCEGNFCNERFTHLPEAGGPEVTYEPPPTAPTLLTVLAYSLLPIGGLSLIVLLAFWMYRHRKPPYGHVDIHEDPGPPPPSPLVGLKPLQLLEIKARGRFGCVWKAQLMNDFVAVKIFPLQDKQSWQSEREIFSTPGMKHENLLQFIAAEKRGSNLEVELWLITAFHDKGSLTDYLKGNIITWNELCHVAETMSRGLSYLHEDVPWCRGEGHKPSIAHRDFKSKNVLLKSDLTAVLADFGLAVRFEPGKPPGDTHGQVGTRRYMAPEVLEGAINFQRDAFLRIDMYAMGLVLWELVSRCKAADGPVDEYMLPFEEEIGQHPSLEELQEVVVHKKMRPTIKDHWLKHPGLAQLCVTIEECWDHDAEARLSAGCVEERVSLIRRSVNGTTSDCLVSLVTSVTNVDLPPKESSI

Legend:
[1] = target: T1, Myc-tagged ACVR1 (Activin A Receptor Type 1), wild type (UniProt Q04771); assay: co-IP
T1 sequence: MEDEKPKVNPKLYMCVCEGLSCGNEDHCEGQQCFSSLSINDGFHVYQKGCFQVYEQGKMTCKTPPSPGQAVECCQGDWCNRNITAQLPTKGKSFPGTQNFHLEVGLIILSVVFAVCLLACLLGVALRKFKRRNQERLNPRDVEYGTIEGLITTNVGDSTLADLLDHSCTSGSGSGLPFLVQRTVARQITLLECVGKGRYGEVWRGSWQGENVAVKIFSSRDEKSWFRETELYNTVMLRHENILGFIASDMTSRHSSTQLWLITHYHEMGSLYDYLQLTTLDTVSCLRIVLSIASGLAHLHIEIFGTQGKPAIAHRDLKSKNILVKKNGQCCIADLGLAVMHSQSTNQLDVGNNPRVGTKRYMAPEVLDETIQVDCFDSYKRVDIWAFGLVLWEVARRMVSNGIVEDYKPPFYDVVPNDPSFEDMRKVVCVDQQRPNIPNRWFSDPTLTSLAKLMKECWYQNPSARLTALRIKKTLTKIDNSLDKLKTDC

[2] = target: T2, Myc-tagged ACVR1[R206H] (UniProt Q04771); assay: co-IP
T2 sequence: T1 sequence with R186H

binding [1]: binds | binding [2]: binds
Substance: HA-tagged ACVR2B (from UniProt Q13705 19-512) (receptor)
